For 25 compounds, T/C and survivor count results are on record in PubChem BioAssay AID330 (DTP/NCI, 2004).

For the test, the system named is P388 leukemia ip, CD2F1 mice, survival T/C. Description: NCI In Vivo Anticancer Drug Screen. Data for tumor model P388 Leukemia (intraperitoneal) in CD2F1 (CDF1) mice. The conditions noted are these: T/C endpoint: median survival time, higher T/C = longer survival.
The mark [1] stands for this setting: dose: 200.0 mg/kg/injection, schedule: Q01DX005 (ip), vehicle: saline with Tween-80.
[2] abbreviates: dose: 200.0 mg/kg/injection, schedule: Q01DX009 (ip), vehicle: Klucel (hydroxypropylcellulose) (HPC).
[3] abbreviates: dose: 60.0 mg/kg/injection, schedule: Q01DX005 (ip), vehicle: saline.
Where [4] appears, read: dose: 120.0 mg/kg/injection, schedule: Q01DX005 (ip), vehicle: saline.
Where [5] appears, read: dose: 240.0 mg/kg/injection, schedule: Q01DX005 (ip), vehicle: saline.
The mark [6] stands for this setting: dose: 240.0 mg/kg/injection, schedule: Q01DX005 (ip), vehicle: saline with Tween-80.
[7] abbreviates: dose: 120.0 mg/kg/injection, schedule: Q01DX005 (ip), vehicle: saline with Tween-80.
The mark [8] stands for this setting: dose: 200.0 mg/kg/injection, schedule: Q04DX003 (ip), vehicle: saline with Tween-80.
Setting [9] is: dose: 400.0 mg/kg/injection, schedule: Q04DX003 (ip), vehicle: saline with Tween-80.
Setting [10] is: dose: 25.0 mg/kg/injection, schedule: Q01DX009 (ip), vehicle: Klucel (hydroxypropylcellulose) (HPC).
The mark [11] stands for this setting: dose: 50.0 mg/kg/injection, schedule: Q01DX009 (ip), vehicle: Klucel (hydroxypropylcellulose) (HPC).
Where [12] appears, read: dose: 100.0 mg/kg/injection, schedule: Q01DX009 (ip), vehicle: Klucel (hydroxypropylcellulose) (HPC).
Where [13] appears, read: dose: 50.0 mg/kg/injection, schedule: Q01DX009 (ip), vehicle: saline with Tween-80.

The list is a part of this screen's results and no random one: it is rich in T/C values a quarter to a half above the control, in often repeated tests (any T/C) and in doses without a T/C. Other doses and runs of a compound stand elsewhere. T/C is the treated group as % of the vehicle group. Some entries give survivors of the animals treated and no T/C: the source files T/C as zero there, which appears to mark a toxic dose or a test without result, not a measured value. Some survivor counts are full or nearly so, which does not show that the dose was tolerated: survival well below the control is almost never listed, so the zero probably covers shortened survival too. Survivors were counted at the toxicity check, usually on the fifth day, unless a day is given; later deaths do not show. Schedule codes are those of the source, read here as Q, the interval in days (D) or hours (H), X, the number of doses. Some structures stand for samples that the source files as different forms (salt, stereo form or complex); doses refer to the form tested. For survival time, the PubChem record calls one and a half times the control and up active, and a quarter to a half above the control has no call in these data; cut-offs in other NCI protocols can differ. Some entries were tested several times; the results are listed from low to high. Some T/C values carry the count of animals alive at the toxicity check (mostly the fifth day); where none is given, no animal had died by that day.

With `COc1cccc2c1C(=O)c1c(O)c3c(c(O)c1C2=O)C[C@@](O)(C(=O)CSc1ccccc1)C[C@@H]3OC1CC(N)C(O)C(C)O1` (some centres undefined), the T/C reads like this: (dose: 1.56 mg/kg/injection, schedule: Q01DX009 (ip), vehicle: water) 130 and 137 % of control; (dose: 3.13 mg/kg/injection, schedule: Q01DX009 (ip), vehicle: water) 138 [5 of 6 alive] and 140 % of control; (dose: 6.25 mg/kg/injection, schedule: Q01DX001 (ip), vehicle: water) 127 % of control; (dose: 6.25 mg/kg/injection, schedule: Q01DX009 (ip), vehicle: water) 131 and 138 % of control; (dose: 12.5 mg/kg/injection, schedule: Q01DX001 (ip), vehicle: water) 127 % of control. Besides, the survivor count by setting is: (dose: 25.0 mg/kg/injection, schedule: Q01DX001 (ip), vehicle: water) 2 of 6; (dose: 25.0 mg/kg/injection, schedule: Q01DX009 (ip), vehicle: water) 1 of 6; (dose: 50.0 mg/kg/injection, schedule: Q01DX001 (ip), vehicle: water) 0 of 6; (dose: 100.0 mg/kg/injection, schedule: Q01DX001 (ip), vehicle: water) 0 of 6.

On to `CN(CCC1(C)C(=O)CCc2ccccc21)Cc1ccccc1` (centres undefined), for which the survivor count is, setting by setting: (dose: 100.0 mg/kg/injection, schedule: Q01DX005 (ip), vehicle: saline with Tween-80) 0 of 5; under setting [1], 0 of 5.

For `COc1ccc(Cl)c(C)c1C(=O)OC1CC(OC2C(O)CC(OC3CCCC4C3C=CC3CCCC/C=C/C5C=C(C(=O)O)C(C)CC56OC(=O)C(=C6O)OC(=O)C34C)OC2C)OC(C)C1O` (centres undefined), the survivor count under setting [2] was 6 of 6.

As to `C/C(=N\N1CN(C(C)C(=O)O)P(N(CCO)CCO)N=C1N)c1cccs1` (centres undefined), the survivor count reads like this: under setting [3], 0 of 6; under setting [4], 0 of 6; under setting [5], 0 of 6.

On to `[CH3][Sn]([CH3])([CH3])[O]C(=O)CNC(=O)c1ccccc1`, for which the survivor count is recorded as 0 of 6 (dose: 6.25 mg/kg/injection, schedule: Q01DX001 (ip), vehicle: Klucel (hydroxypropylcellulose) (HPC)); 0 of 6 (dose: 100.0 mg/kg/injection, schedule: Q01DX001 (ip), vehicle: saline); 0 of 6 (dose: 200.0 mg/kg/injection, schedule: Q01DX001 (ip), vehicle: saline); 0 of 6 (dose: 400.0 mg/kg/injection, schedule: Q01DX001 (ip), vehicle: saline).

In the case of `CCOC(=O)C1=CC(C)(C)OC1=O`, the survivor count (dose: 480.0 mg/kg/injection, schedule: Q01DX005 (ip), vehicle: saline with Tween-80) is 1 of 6.

`C(CCc1nnc2c(n1)CCCC2)Cc1nnc2c(n1)CCCC2`: the survivor count under setting [6] is on record as 0 of 6.

Regarding `CCOC(=O)C1=C(C(=O)c2ccc(OC)cc2)C(c2cccc([N+](=O)[O-])c2)C(C(=O)c2ccc(OC)cc2)=C(C(=O)OCC)N1`, the survivor count under setting [7] is 6 of 6.

As to `CCC1=CCCN(Cc2ccccc2)C1C#N` (centres undefined), the survivor count is listed as 1 of 6 (dose: 60.0 mg/kg/injection, schedule: Q01DX005 (ip), vehicle: Klucel (hydroxypropylcellulose) (HPC)); 1 of 6 (dose: 120.0 mg/kg/injection, schedule: Q01DX005 (ip), vehicle: Klucel (hydroxypropylcellulose) (HPC)); 0 of 6 (dose: 240.0 mg/kg/injection, schedule: Q01DX005 (ip), vehicle: Klucel (hydroxypropylcellulose) (HPC)).

As to `CCOC(=O)C(Cc1ccccc1)NC(=O)N(CCCl)CCCl` (centres undefined), the survivor count under setting [8] was 6 of 6. Also, the T/C by setting is: (dose: 264.0 mg/kg/injection, schedule: Q01DX009 (ip), vehicle: saline with Tween-80) 136 % of control; (dose: 400.0 mg/kg/injection, schedule: Q01DX009 (ip), vehicle: saline with Tween-80) 136 and 140 % of control; under setting [9], 145 % of control; (dose: 600.0 mg/kg/injection, schedule: Q01DX009 (ip), vehicle: saline with Tween-80) 131 % of control.

Take `COc1ccc2cc3[n+](cc2c1OC)CCc1cc2c(cc1-3)OCO2`: the T/C (dose: 10.0 mg/kg/injection, schedule: Q01DX009 (ip), vehicle: water) was 132 % of control. Moreover, the survivor count is recorded as 3 of 6 (dose: 20.0 mg/kg/injection, schedule: Q01DX009 (ip), vehicle: water); 6 of 6 under setting [10]; 0 of 6 (dose: 40.0 mg/kg/injection, schedule: Q01DX009 (ip), vehicle: water); 0 of 6 under setting [11]; 0 of 6 under setting [12].

Turning to `CC([NH-])C[NH-].O=S(=O)(O)O.[Pt+2]` (centres undefined), the T/C (dose: 3.12 mg/kg/injection, schedule: Q04DX002 (ip), vehicle: saline) was 130 % of control.

In the case of `Cn1c(=O)c2c(Nc3ccccc3)ncnc2n(C)c1=O`, the survivor count (dose: 140.0 mg/kg/injection, schedule: Q01DX005 (ip), vehicle: saline with Tween-80) is listed as 6 of 6.

Consider `O=P(Oc1cccc2ccccc12)(N1CC1)N1CC1`, for which the T/C under setting [13] was 140 % of control.

In the case of `S=C(S)N1CCCCC1`, the survivor count is, setting by setting: under setting [13], 4 of 6; (dose: 100.0 mg/kg/injection, schedule: Q01DX009 (ip), vehicle: saline with Tween-80) 3 of 6; (dose: 200.0 mg/kg/injection, schedule: Q01DX009 (ip), vehicle: saline with Tween-80) 0 of 6.

With `CS1(=O)=NC(=NC#N)c2ccccc21` (centres undefined), the survivor count under setting [2] is on record as 5 of 6.

In the case of `CN1C(Cl)=NS(=O)(=O)c2ccccc21`, the survivor count by setting is: under setting [7], 0 of 6; under setting [6], 0 of 6.

As for `Cc1cc2cc(Cl)c(CN)cc2[nH]1`, the survivor count by setting is: (dose: 200.0 mg/kg/injection, schedule: Q04DX003 (ip), vehicle: Klucel (hydroxypropylcellulose) (HPC)) 4 of 6; (dose: 400.0 mg/kg/injection, schedule: Q04DX003 (ip), vehicle: Klucel (hydroxypropylcellulose) (HPC)) 2 of 6.

In the case of `O=c1oc2c(c(N(c3ccccc3)c3ccccc3)c1Cl)CSc1ccccc1-2`, the survivor count runs as follows: under setting [8], 6 of 6; under setting [9], 6 of 6.

For the compound `S=c1n(-c2ccc(Cl)cc2)c2nc3ccccc3nc(/c2=N\Nc2cc(Cl)ccc2Cl)n1-c1ccccn1`, under setting [1], the survivor count is 2 of 6.

On to `NC(=O)c1c[n+]([O-])ccc1[N+](=O)[O-]`, for which the T/C was 129 % of control under setting [10] and 132 % of control under setting [11]. The survivor count runs as follows: under setting [12], 1 of 6; under setting [2], 0 of 6.

Consider `Cc1ncc(CCl)n1Cc1ccccc1`, for which the survivor count is, setting by setting: under setting [3], 6 of 6; under setting [4], 2 of 6; under setting [5], 0 of 6.

In the case of `C/C(=N/NC(N)=O)c1cccc(/C(C)=N/NC(N)=O)n1.[Cl][Zn][Cl]`, the survivor count is 2 of 6 (dose: 50.0 mg/kg/injection, schedule: Q01DX009 (ip), vehicle: saline); 1 of 6 (dose: 100.0 mg/kg/injection, schedule: Q01DX009 (ip), vehicle: saline); 0 of 6 (dose: 200.0 mg/kg/injection, schedule: Q01DX009 (ip), vehicle: saline).

For the compound `CC(C)(C)C1CCN(Cc2ccccc2)CC1`, the survivor count under setting [1] is recorded as 0 of 6.

With `C=C1C(=O)OC2CC(C)C3C=CC(=O)C3CC12` (centres undefined), the survivor count by setting is: (dose: 1.2 mg/kg/injection, schedule: Q01DX009 (ip), vehicle: Klucel (hydroxypropylcellulose) (HPC)) 6 of 6; (dose: 4.69 mg/kg/injection, schedule: Q01DX009 (ip), vehicle: Klucel (hydroxypropylcellulose) (HPC)) 3 of 6; (dose: 9.38 mg/kg/injection, schedule: Q01DX009 (ip), vehicle: Klucel (hydroxypropylcellulose) (HPC)) 0 of 6.
